Measured values from the supplement of paper PMC3334620.
In all, about 33,000 sequences were measured (“E-score (-0.5 to 0.5)”: median about -0.016, highest 2% from about 0.3 on). This is one part of the list.

These sequences were tested against T1, Yer184c (UniProt P39961) (assay: PBM E-score (8-mer binding enrichment) (E-score (-0.5 to 0.5)); higher = stronger / more preferred TF binding). Settings: protein concentration: 100 nM; construct: GST-full length.
T1 sequence: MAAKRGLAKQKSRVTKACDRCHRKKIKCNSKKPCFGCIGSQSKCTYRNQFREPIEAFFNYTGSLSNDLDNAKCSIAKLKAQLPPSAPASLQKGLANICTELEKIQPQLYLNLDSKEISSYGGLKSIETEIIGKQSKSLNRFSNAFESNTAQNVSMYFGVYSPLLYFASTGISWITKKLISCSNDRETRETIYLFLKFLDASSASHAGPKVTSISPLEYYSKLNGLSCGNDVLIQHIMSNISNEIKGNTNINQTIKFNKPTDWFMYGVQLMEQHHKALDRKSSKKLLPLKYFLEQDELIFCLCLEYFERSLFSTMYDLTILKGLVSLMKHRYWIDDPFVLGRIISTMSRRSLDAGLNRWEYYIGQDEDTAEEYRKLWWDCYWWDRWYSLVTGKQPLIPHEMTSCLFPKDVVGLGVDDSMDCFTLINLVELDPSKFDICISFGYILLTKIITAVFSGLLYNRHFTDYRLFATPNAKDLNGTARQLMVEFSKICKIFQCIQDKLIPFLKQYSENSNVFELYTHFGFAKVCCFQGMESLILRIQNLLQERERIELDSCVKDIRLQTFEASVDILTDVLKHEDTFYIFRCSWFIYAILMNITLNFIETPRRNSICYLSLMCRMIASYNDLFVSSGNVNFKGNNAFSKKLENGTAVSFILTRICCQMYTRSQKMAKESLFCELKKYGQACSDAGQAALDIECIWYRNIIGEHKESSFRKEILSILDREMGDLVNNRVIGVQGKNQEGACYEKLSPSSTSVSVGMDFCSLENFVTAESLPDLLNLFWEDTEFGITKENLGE
In short: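 Universal all-10-mer Agilent arrays, double-stranded by primer extension on fresh or once-stripped slides, were probed with about 100-200 nM GST-tagged yeast transcription factors made by PURExpress. Fluorescent anti-GST detected bound protein, and masliner normalised the scans. E-scores from the Universal PBM Analysis Suite were given to each ungapped eight-base word pooled with its reverse complement.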

| Sequence | PBM E-score |
| --- | --- |
| GCAATCGA | -0.0134 |
| ATTACGCG | 0.0235 |
| ACGTCATG | -0.0927 |
| CGGGTAAC | 0.108 |
| ACCAGCGA | -0.158 |
| CAGCCGCA | -0.134 |
| GAATTCAC | 0.092 |
| GTATCCAA | -0.0563 |
| CACCGGAA | 0.368 |
| CCATGTGA | -0.209 |
| AAATTAGA | 0.207 |
| CTCGTTGA | -0.229 |
| TCCAATCA | -0.0172 |
| ATTGACAG | 0.0247 |
| GAAAGTCC | -0.0817 |
| AGCTACGC | -0.0531 |
| TAAAGAAA | 0.268 |
| ACGTTAGG | -0.217 |
| ACGAACGC | 0.11 |
| CGCGGATA | 0.317 |
| ATCACCAG | -0.145 |
| GGTAGTCA | -0.22 |
| ACTGAAAA | 0.158 |
| CTTCTCTC | 0.0203 |
| ACGCCTCG | -0.0178 |

| Sequence | PBM E-score |
| --- | --- |
| CTTAGCTA | -0.154 |
| ACAAGGGT | -0.0932 |
| GGAACTCA | 0.0136 |
| AGTAGCAC | -0.114 |
| TCATGGAA | 0.125 |
| TCATAGGA | -0.0683 |
| CTGACCGC | 0.0354 |
| AAGGATAG | 0.0283 |
| ACATGGGT | 0.00449 |
| ACGGATCT | 0.213 |
| GTGGGCGA | -0.119 |
| GTATTCGA | -0.256 |
| CCGGAGAC | 0.303 |
| ATAGAACC | -0.0934 |
| ACTAGTAT | 0.147 |
| CAGAGGAC | -0.112 |
| ACAGACCA | 0.0448 |
| GCGTTGTA | 0.0229 |
| CCATGAAA | 0.0937 |
| CTAGCCAC | -0.278 |
| GATTGCGC | 0.144 |
| TCAGTCAA | 0.102 |
| CAGGGCGC | -0.11 |
| CGCGGAAC | 0.382 |
| ACAGCCAA | -0.0569 |

| Sequence | PBM E-score |
| --- | --- |
| GGCGACAA | 0.0682 |
| ACAAGGGC | -0.309 |
| AGTGTAAG | -0.253 |
| CCCTAAGG | -0.174 |
| AGCGGAGA | -0.0382 |
| ACTATATC | 0.013 |
| GTCGGATA | 0.122 |
| CATAGCTA | -0.172 |
| ATGGAGAG | -0.0917 |
| CGAGGCCA | -0.0953 |
| AGGCGACG | -0.145 |
| GGGGACCC | -0.277 |
| AATCTCCT | -0.208 |
| CCCGTGAC | -0.0772 |
| GTACAAAA | 0.131 |
| TACCCCGA | 0.147 |
| ACTCAAGG | -0.0344 |
| ATTTCACC | 0.0839 |
| CAACGTTC | -0.0683 |
| AGGTTGGA | 0.0437 |
| CTTTCCTA | -0.101 |
| ATCGTGTG | 0.0811 |
| CTGTTGAA | 0.271 |
| ATTTTGGC | 0.123 |
| ACTGGTTA | 0.0241 |

| Sequence | PBM E-score |
| --- | --- |
| ACTTTAAC | 0.00964 |
| ACAGGCCA | -0.116 |
| ATATCCCA | 0.147 |
| CAGTTGTA | -0.0804 |
| CGTCAATC | 0.0423 |
| AGAAGTAG | -0.178 |
| CTGGTGTA | -0.234 |
| CCATCTCG | -0.0305 |
| ACGATTGG | -0.0158 |
| AGCGGTTA | -0.0442 |
| ATGCCTTC | -0.164 |
| AGGGAGCG | -0.183 |
| ATATTCAT | 0.043 |
| CATACCGG | 0.0061 |
| ACCGTCTC | 0.12 |
| CCGTTGAC | -0.0859 |
| ATCAAGGA | -0.0495 |
| ACCGACCA | 0.0704 |
| AAAGATCA | 0.163 |
| ACACCTAC | -0.161 |
| ATGTAAAA | 0.109 |
| CCTTTCCC | 0.125 |
| AACCATCA | 0.0573 |
| ATTCATAC | 0.165 |
| GATTTTAA | 0.154 |

| Sequence | PBM E-score |
| --- | --- |
| ACAACAGG | 0.0435 |
| CTAAAAAA | 0.226 |
| ATGCAAAT | 0.00245 |
| ATGAGTGC | -0.00199 |
| AAAATCAG | 0.0867 |
| CAAGGTAA | 0.0865 |
| ATGGATTG | 0.0538 |
| CTCTTATC | 0.158 |
| CTTATCAA | 0.116 |
| GCTCTACA | 0.0271 |
| AGTACTAC | 0.102 |
| AGAGAAGC | -0.0358 |
| GGCTGGCA | -0.301 |
| AGCGGTAA | 0.0767 |
| ATAGGCAC | -0.237 |
| AGTTAGCA | 0.0491 |
| ACTATACG | 0.0833 |
| ACCAGAGG | -0.189 |
| ACAATAGG | -0.015 |
| AATAAAGA | 0.132 |
| AATGCATA | -0.0579 |
| AGTGCGAG | -0.0901 |
| GACTCCTC | -0.0552 |
| AGAGGCCA | -0.291 |
| TCGTCTAA | 0.00749 |

Reformatted field by field: entries from further up
ACAACAGG
  PBM E-score = 0.0435
CTAAAAAA
  PBM E-score = 0.226
ATGCAAAT
  PBM E-score = 0.00245
ATGAGTGC
  PBM E-score = -0.00199

(list continues)

| Sequence | PBM E-score |
| --- | --- |
| CCGGGATC | 0.339 |
| AGCCCGAT | -0.0108 |
| TGTCCCAA | -0.00913 |
| ATCGTGGG | -0.0117 |
| ATAGTCTG | 0.0462 |
| CGTATCTC | 0.0677 |
| GCTTCGCA | -0.163 |
| AACAGGGG | -0.0987 |
| AGGGCAAG | -0.0444 |
| ATACGATG | -0.0137 |
| GAGCGAGC | 0.102 |
| ACGTATGG | -0.113 |
| ACTTCAAG | -0.0326 |
| ACTGTCTA | -0.0497 |
| CACAGCCC | -0.192 |
| GTGAAGGA | -0.0595 |
| CAAACCGA | 0.117 |
| ATGAACAC | 0.125 |
| GCAAAGAA | 0.171 |
| AAAAATTT | 0.297 |
| ACGAAAAT | 0.163 |
| AGGCTTGG | -0.204 |
| AACCCGCA | -0.0626 |
| AGAAAGTC | 0.133 |
| ATAAATCG | 0.178 |

| Sequence | PBM E-score |
| --- | --- |
| GAGTCGAC | -0.0678 |
| ACATAGTC | -0.111 |
| ACTCTCAG | -0.161 |
| CGTCGACA | -0.035 |
| ACCCTGCT | -0.261 |
| GACAAGCC | -0.00546 |
| GGTCAGAA | 0.094 |
| CCGGAAAC | 0.396 |
| GGAATTAA | 0.189 |
| CATACAAG | -0.097 |
| CCATGAGC | -0.229 |
| ATGTGTTG | 0.158 |
| CTCCGAAC | 0.323 |
| GACTGGGA | -0.179 |
| ATAGCGAG | -0.0798 |
| GACAGGGC | -0.154 |
| CTCCCAAC | -0.149 |
| ACTCAGCA | 0.0401 |
| AGGTCAAA | -0.156 |
| CTCGTCGC | -0.186 |
| ACCTGTGC | -0.172 |
| GGTTGCTA | -0.0171 |

Rewritten as comma-separated lines: part of the list above.
Sequence,PBM E-score
GCTTCGCA,-0.163
AACAGGGG,-0.0987
AGGGCAAG,-0.0444
ATACGATG,-0.0137
GAGCGAGC,0.102
ACGTATGG,-0.113
ACTTCAAG,-0.0326
ACTGTCTA,-0.0497
CACAGCCC,-0.192
GTGAAGGA,-0.0595
CAAACCGA,0.117
ATGAACAC,0.125
GCAAAGAA,0.171
AAAAATTT,0.297
ACGAAAAT,0.163
AGGCTTGG,-0.204
AACCCGCA,-0.0626
AGAAAGTC,0.133
ATAAATCG,0.178
GAGTCGAC,-0.0678
ACATAGTC,-0.111
ACTCTCAG,-0.161
CGTCGACA,-0.035
ACCCTGCT,-0.261
GACAAGCC,-0.00546
GGTCAGAA,0.094
CCGGAAAC,0.396
GGAATTAA,0.189
CATACAAG,-0.097
CCATGAGC,-0.229
ATGTGTTG,0.158
CTCCGAAC,0.323
GACTGGGA,-0.179
ATAGCGAG,-0.0798
GACAGGGC,-0.154
CTCCCAAC,-0.149
ACTCAGCA,0.0401
AGGTCAAA,-0.156
CTCGTCGC,-0.186
ACCTGTGC,-0.172
